{"source": "patent US10857121B2", "about": "“Use of malononitrile compounds for protecting animals from parasites” (MERIAL INC., priority 2014, dated 2020)", "key": {"[1]": {"test_system": "Stomoxys calcitrans (stable fly)", "experiment": "Contact activity against Stomoxys calcitrans (treated filter paper in Petri dish)"}, "[2]": {"test_system": "Haematobia irritans (horn fly)", "experiment": "Contact activity against Haematobia irritans (treated filter paper in Petri dish)"}, "[3]": {"conditions": "1 hour after introduction of adult flies"}, "[4]": {"conditions": "1 hour after introduction of adult horn flies"}, "[5]": {"conditions": "24 hours after introduction of adult flies"}, "[6]": {"conditions": "6 hours after introduction of adult horn flies"}}, "note": "Some of these results come from one statement about several compounds together.", "data": [{"smiles": "CC(c1ccc(C(F)(F)F)cc1)C(C#N)(C#N)c1ccc(F)cc1", "note": "(racemic) [II-50]", "values": [{"measurement": "effective concentration (EC50) required to kill 50% of the stable flies", "setting": "[1]; [3]", "value": "less than 10 nmol/cm^2"}, {"measurement": "effective concentration (EC50) required to kill 50% of the flies", "setting": "[2]; [4]", "value": "less than 10 nmol/cm^2"}]}, {"smiles": "CC(c1ccc(C(F)(F)F)cc1)C(C#N)(C#N)c1cc(F)cc(F)c1", "note": "(racemic) [II-87]", "values": [{"measurement": "effective concentration (EC50) required to kill 50% of the stable flies", "setting": "[1]; [3]", "value": "less than 10 nmol/cm^2"}, {"measurement": "effective concentration (EC50) required to kill 50% of the stable flies", "setting": "[1]; [5]", "value": "less than 0.1 nmol/cm^2"}, {"measurement": "effective concentration (EC50) required to kill 50% of the flies", "setting": "[2]; [4]", "value": "less than 10 nmol/cm^2"}, {"measurement": "effective concentration (EC50) required to kill 50% of the flies", "setting": "[2]; [6]", "value": "less than 0.1 nmol/cm^2"}]}, {"smiles": "C#Cc1ccc(C(C)C(C#N)(C#N)c2ccc(F)cc2)cc1", "note": "(racemic) [II-96]", "values": [{"measurement": "effective concentration (EC50) required to kill 50% of the stable flies", "setting": "[1]; [5]", "value": "less than 0.1 nmol/cm^2"}, {"measurement": "effective concentration (EC50) required to kill 50% of the flies", "setting": "[2]; [4]", "value": "less than 10 nmol/cm^2"}]}, {"smiles": "CC(c1ccc(C(F)(F)F)cc1)C(C#N)(C#N)c1cc(F)c(F)c(F)c1", "note": "(racemic) [II-110]", "values": [{"measurement": "effective concentration (EC50) required to kill 50% of the stable flies", "setting": "[1]; [3]", "value": "less than 10 nmol/cm^2"}, {"measurement": "effective concentration (EC50) required to kill 50% of the stable flies", "setting": "[1]; [5]", "value": "less than 0.1 nmol/cm^2"}, {"measurement": "effective concentration (EC50) required to kill 50% of the flies", "setting": "[2]; [4]", "value": "less than 10 nmol/cm^2"}, {"measurement": "effective concentration (EC50) required to kill 50% of the flies", "setting": "[2]; [6]", "value": "less than 0.1 nmol/cm^2"}]}, {"smiles": "C#Cc1ccc(CC(C#N)(C#N)c2ccccc2)cc1", "note": "[II-32]", "values": [{"measurement": "effective concentration (EC50) required to kill 50% of the stable flies", "setting": "[1]; [5]", "value": "less than 0.1 nmol/cm^2"}, {"measurement": "effective concentration (EC50) required to kill 50% of the flies", "setting": "[2]; [4]", "value": "less than 10 nmol/cm^2"}, {"measurement": "effective concentration (EC50) required to kill 50% of the flies", "setting": "[2]; [6]", "value": "less than 0.1 nmol/cm^2"}]}, {"smiles": "C#Cc1ccc(CC(C#N)(C#N)c2ccc(F)cc2)cc1", "note": "[II-35]", "values": [{"measurement": "effective concentration (EC50) required to kill 50% of the stable flies", "setting": "[1]; [5]", "value": "less than 0.1 nmol/cm^2"}, {"measurement": "effective concentration (EC50) required to kill 50% of the flies", "setting": "[2]; [6]", "value": "less than 0.1 nmol/cm^2"}]}, {"smiles": "N#CC(C#N)(Cc1ccc(C(F)(F)F)c(F)c1)c1ccccc1", "note": "[II-60]", "values": [{"measurement": "effective concentration (EC50) required to kill 50% of the stable flies", "setting": "[1]; [5]", "value": "less than 0.1 nmol/cm^2"}, {"measurement": "effective concentration (EC50) required to kill 50% of the flies", "setting": "[2]; [4]", "value": "less than 10 nmol/cm^2"}, {"measurement": "effective concentration (EC50) required to kill 50% of the flies", "setting": "[2]; [6]", "value": "less than 0.1 nmol/cm^2"}]}, {"smiles": "C#Cc1ccc(CC(C#N)(C#N)c2cccc(F)c2)cc1", "note": "[II-66]", "values": [{"measurement": "effective concentration (EC50) required to kill 50% of the stable flies", "setting": "[1]; [5]", "value": "less than 0.1 nmol/cm^2"}, {"measurement": "effective concentration (EC50) required to kill 50% of the flies", "setting": "[2]; [4]", "value": "less than 10 nmol/cm^2"}, {"measurement": "effective concentration (EC50) required to kill 50% of the flies", "setting": "[2]; [6]", "value": "less than 0.1 nmol/cm^2"}]}, {"smiles": "N#CC(C#N)(Cc1ccc(C(F)(F)F)cc1)c1cccc(F)c1", "note": "[II-67]", "values": [{"measurement": "effective concentration (EC50) required to kill 50% of the stable flies", "setting": "[1]; [5]", "value": "less than 0.1 nmol/cm^2"}, {"measurement": "effective concentration (EC50) required to kill 50% of the flies", "setting": "[2]; [4]", "value": "less than 10 nmol/cm^2"}, {"measurement": "effective concentration (EC50) required to kill 50% of the flies", "setting": "[2]; [6]", "value": "less than 0.1 nmol/cm^2"}]}, {"smiles": "N#CC(C#N)(Cc1ccc(OC(F)(F)F)cc1)c1cccc(F)c1", "note": "[II-73]", "values": [{"measurement": "effective concentration (EC50) required to kill 50% of the stable flies", "setting": "[1]; [3]", "value": "less than 10 nmol/cm^2"}, {"measurement": "effective concentration (EC50) required to kill 50% of the stable flies", "setting": "[1]; [5]", "value": "less than 0.1 nmol/cm^2"}, {"measurement": "effective concentration (EC50) required to kill 50% of the flies", "setting": "[2]; [4]", "value": "less than 10 nmol/cm^2"}, {"measurement": "effective concentration (EC50) required to kill 50% of the flies", "setting": "[2]; [6]", "value": "less than 0.1 nmol/cm^2"}]}, {"smiles": "C#Cc1ccc(CC(C#N)(C#N)c2cc(F)cc(F)c2)cc1", "note": "[II-86]", "values": [{"measurement": "effective concentration (EC50) required to kill 50% of the stable flies", "setting": "[1]; [5]", "value": "less than 0.1 nmol/cm^2"}, {"measurement": "effective concentration (EC50) required to kill 50% of the flies", "setting": "[2]; [4]", "value": "less than 10 nmol/cm^2"}, {"measurement": "effective concentration (EC50) required to kill 50% of the flies", "setting": "[2]; [6]", "value": "less than 0.1 nmol/cm^2"}]}, {"smiles": "N#CC(C#N)(Cc1ccc(C(F)(F)F)cc1)c1cc(F)c(F)c(F)c1", "note": "[II-108]", "values": [{"measurement": "effective concentration (EC50) required to kill 50% of the stable flies", "setting": "[1]; [3]", "value": "less than 10 nmol/cm^2"}, {"measurement": "effective concentration (EC50) required to kill 50% of the stable flies", "setting": "[1]; [5]", "value": "less than 0.1 nmol/cm^2"}, {"measurement": "effective concentration (EC50) required to kill 50% of the flies", "setting": "[2]; [4]", "value": "less than 10 nmol/cm^2"}, {"measurement": "effective concentration (EC50) required to kill 50% of the flies", "setting": "[2]; [6]", "value": "less than 0.1 nmol/cm^2"}]}, {"smiles": "C#Cc1ccc(CC(C#N)(C#N)c2cc(F)c(F)c(F)c2)cc1", "note": "[II-109]", "values": [{"measurement": "effective concentration (EC50) required to kill 50% of the stable flies", "setting": "[1]; [3]", "value": "less than 10 nmol/cm^2"}, {"measurement": "effective concentration (EC50) required to kill 50% of the stable flies", "setting": "[1]; [5]", "value": "less than 0.1 nmol/cm^2"}, {"measurement": "effective concentration (EC50) required to kill 50% of the flies", "setting": "[2]; [4]", "value": "less than 10 nmol/cm^2"}, {"measurement": "effective concentration (EC50) required to kill 50% of the flies", "setting": "[2]; [6]", "value": "less than 0.1 nmol/cm^2"}]}]}
